Patent US20080004227A1, “Pharmaceutical Composition for Lowering Blood Sugar Level” (PHARMAFRONTIER CO., LTD, priority 2004, published 2008)
At least one structure is not confirmed: it was looked up by name or label, or the drawing left a doubt.

Test system: GT01
Assay: Measurement of intracellular Ca2+ concentration using FLIPR in HEK cells stably expressing the receptor
Assay type: cell-based, mouse
Details: compared with the fatty acids of FIG. 5

| SMILES | pEC50 for the elevation of Ca2+ concentration in an HEK cell |
| --- | --- |
| CC/C=C\C/C=C\C/C=C\C/C=C\C/C=C\CCCC(=O)O [Eicosapentaenoic acid, eicosapentaenoic acid] | comparable pEC50 |
| CC/C=C\C/C=C\C/C=C\C/C=C\C/C=C\C/C=C\CCC(=O)O [docosahexaenoic acid] | comparable pEC50 |
